# The supplement of paper PMC10849652
# Chains of the proteins cited; added tags and fusions are not shown. Lines headed by an entry give the natural chain unless they say otherwise; changes in a name come on top.
# UniProt Q96R06: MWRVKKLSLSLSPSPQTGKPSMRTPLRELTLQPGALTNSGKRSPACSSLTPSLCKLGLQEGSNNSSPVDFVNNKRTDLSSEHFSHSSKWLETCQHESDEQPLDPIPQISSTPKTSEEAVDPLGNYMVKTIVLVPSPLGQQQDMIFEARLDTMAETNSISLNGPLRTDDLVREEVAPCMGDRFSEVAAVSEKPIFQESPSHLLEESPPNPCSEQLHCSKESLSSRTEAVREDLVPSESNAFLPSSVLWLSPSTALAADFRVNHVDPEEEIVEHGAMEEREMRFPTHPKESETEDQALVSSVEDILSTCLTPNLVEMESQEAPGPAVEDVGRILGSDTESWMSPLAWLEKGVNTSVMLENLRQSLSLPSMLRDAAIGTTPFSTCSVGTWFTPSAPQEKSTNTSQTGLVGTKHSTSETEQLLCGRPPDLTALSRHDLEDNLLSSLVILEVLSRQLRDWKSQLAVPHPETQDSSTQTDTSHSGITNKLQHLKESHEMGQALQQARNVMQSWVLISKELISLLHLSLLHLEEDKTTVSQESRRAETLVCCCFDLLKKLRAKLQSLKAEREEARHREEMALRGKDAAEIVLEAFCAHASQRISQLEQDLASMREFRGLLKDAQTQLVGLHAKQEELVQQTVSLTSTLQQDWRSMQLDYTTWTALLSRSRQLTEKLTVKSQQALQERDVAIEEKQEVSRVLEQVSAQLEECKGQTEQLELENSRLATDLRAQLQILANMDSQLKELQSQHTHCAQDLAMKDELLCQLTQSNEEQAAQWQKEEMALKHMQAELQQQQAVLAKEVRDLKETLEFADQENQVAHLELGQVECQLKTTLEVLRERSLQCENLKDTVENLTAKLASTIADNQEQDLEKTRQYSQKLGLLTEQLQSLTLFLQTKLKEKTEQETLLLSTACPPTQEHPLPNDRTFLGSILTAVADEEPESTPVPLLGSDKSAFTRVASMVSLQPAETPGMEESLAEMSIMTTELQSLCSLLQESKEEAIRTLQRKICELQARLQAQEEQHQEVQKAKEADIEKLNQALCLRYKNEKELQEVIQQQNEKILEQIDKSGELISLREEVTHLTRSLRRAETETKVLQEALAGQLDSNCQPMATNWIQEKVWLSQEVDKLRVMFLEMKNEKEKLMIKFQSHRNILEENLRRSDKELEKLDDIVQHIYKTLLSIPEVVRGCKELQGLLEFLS
# UniProt Q13425: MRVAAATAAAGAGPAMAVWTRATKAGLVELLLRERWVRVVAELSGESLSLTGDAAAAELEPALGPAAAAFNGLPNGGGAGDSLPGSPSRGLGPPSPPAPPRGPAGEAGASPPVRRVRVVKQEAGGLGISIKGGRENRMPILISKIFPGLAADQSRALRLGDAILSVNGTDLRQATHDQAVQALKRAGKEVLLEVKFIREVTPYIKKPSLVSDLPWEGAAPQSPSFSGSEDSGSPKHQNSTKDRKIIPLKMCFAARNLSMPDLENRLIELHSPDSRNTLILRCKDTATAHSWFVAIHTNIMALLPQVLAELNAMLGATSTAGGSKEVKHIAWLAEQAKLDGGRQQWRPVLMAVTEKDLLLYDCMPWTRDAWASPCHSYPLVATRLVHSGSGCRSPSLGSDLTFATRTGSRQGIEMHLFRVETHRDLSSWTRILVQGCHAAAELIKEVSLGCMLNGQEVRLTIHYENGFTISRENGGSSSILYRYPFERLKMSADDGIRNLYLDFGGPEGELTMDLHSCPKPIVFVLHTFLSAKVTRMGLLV
# UniProt O60493, whole entry, looked up: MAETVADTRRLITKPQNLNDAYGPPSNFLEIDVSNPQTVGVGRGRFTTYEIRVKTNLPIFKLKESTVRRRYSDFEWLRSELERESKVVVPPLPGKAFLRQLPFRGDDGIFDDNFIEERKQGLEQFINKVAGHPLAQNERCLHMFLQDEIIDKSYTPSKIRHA
# UniProt Q92922, whole entry, looked up: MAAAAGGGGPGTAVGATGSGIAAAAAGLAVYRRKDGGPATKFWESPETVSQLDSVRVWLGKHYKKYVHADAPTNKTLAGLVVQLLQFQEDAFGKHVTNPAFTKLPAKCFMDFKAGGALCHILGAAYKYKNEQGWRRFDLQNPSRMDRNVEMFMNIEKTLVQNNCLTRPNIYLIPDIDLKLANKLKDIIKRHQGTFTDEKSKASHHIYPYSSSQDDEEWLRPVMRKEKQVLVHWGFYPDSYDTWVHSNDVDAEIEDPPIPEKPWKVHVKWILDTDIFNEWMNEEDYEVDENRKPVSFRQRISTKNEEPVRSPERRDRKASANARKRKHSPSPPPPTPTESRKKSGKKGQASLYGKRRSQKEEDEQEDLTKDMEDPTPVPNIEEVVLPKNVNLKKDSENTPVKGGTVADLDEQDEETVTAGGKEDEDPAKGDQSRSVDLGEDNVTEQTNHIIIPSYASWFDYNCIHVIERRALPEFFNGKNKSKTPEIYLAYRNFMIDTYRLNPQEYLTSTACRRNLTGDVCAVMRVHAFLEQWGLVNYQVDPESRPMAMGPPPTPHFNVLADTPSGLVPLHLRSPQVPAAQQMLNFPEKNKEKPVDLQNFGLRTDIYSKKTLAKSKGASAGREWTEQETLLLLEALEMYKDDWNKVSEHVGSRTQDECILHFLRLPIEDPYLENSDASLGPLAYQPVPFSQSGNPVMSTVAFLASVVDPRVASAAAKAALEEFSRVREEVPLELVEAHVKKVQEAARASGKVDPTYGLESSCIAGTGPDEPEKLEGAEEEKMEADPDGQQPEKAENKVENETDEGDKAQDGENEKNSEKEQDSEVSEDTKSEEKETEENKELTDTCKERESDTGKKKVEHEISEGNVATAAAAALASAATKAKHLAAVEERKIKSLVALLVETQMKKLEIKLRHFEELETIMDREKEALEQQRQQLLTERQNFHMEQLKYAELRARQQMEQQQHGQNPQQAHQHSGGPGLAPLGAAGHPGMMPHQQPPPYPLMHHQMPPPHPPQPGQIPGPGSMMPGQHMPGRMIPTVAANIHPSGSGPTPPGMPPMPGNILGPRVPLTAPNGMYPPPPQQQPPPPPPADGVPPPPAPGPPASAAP
# UniProt P09661: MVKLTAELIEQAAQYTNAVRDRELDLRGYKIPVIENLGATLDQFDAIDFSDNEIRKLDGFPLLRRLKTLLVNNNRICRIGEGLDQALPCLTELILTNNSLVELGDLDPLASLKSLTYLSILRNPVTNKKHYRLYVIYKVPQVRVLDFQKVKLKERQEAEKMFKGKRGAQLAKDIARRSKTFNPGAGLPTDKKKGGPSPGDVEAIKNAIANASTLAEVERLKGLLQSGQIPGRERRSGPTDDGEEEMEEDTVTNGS
# UniProt Q13596, whole entry, looked up: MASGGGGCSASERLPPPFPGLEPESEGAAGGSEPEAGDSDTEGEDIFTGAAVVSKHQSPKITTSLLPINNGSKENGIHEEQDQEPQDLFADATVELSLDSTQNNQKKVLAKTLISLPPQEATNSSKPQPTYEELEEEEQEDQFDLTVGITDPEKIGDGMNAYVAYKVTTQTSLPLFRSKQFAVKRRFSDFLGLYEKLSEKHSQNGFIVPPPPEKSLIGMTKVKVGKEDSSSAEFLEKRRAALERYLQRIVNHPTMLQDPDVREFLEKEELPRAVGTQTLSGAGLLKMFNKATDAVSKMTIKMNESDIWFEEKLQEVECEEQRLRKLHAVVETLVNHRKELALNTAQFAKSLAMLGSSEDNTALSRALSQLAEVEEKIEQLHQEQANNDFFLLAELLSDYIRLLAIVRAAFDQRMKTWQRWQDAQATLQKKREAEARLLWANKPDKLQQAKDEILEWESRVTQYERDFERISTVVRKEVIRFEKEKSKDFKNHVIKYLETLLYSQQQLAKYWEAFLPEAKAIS
# UniProt Q9NX45: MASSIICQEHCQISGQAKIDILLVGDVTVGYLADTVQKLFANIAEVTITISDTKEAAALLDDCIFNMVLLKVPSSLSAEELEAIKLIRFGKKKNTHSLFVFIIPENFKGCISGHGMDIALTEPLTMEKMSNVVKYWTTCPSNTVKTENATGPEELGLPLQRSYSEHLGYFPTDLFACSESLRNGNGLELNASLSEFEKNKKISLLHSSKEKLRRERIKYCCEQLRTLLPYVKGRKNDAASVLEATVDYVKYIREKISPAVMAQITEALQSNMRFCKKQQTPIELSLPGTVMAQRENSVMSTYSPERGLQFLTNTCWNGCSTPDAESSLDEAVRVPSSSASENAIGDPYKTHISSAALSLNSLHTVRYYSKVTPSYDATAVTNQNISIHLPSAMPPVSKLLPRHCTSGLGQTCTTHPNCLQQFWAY
# UniProt Q9NZC9: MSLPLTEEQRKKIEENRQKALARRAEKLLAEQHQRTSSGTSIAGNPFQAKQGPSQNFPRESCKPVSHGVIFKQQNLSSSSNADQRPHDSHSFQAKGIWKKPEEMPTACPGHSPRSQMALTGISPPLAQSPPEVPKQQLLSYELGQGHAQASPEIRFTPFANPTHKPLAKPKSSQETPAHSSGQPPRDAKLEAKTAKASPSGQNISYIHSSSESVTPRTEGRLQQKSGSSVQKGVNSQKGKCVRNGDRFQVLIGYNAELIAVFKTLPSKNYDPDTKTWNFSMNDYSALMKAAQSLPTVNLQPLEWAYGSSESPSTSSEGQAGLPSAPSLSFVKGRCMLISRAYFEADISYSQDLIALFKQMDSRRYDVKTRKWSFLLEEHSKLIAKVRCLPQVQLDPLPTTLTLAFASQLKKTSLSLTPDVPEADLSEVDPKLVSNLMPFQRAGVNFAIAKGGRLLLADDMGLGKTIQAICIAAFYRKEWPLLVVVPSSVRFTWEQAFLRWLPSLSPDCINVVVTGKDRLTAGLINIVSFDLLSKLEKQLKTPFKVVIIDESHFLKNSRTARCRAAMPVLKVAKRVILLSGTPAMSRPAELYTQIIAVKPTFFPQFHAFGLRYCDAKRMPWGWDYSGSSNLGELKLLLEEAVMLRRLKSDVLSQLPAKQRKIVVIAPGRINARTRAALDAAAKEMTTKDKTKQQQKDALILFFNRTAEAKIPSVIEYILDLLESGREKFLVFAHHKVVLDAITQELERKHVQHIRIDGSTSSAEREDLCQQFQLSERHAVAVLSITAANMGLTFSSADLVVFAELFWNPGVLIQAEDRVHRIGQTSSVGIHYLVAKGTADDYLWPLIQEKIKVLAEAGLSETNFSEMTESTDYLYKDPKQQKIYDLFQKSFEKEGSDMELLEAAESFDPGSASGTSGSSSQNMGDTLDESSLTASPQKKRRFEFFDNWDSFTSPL
# UniProt O60641: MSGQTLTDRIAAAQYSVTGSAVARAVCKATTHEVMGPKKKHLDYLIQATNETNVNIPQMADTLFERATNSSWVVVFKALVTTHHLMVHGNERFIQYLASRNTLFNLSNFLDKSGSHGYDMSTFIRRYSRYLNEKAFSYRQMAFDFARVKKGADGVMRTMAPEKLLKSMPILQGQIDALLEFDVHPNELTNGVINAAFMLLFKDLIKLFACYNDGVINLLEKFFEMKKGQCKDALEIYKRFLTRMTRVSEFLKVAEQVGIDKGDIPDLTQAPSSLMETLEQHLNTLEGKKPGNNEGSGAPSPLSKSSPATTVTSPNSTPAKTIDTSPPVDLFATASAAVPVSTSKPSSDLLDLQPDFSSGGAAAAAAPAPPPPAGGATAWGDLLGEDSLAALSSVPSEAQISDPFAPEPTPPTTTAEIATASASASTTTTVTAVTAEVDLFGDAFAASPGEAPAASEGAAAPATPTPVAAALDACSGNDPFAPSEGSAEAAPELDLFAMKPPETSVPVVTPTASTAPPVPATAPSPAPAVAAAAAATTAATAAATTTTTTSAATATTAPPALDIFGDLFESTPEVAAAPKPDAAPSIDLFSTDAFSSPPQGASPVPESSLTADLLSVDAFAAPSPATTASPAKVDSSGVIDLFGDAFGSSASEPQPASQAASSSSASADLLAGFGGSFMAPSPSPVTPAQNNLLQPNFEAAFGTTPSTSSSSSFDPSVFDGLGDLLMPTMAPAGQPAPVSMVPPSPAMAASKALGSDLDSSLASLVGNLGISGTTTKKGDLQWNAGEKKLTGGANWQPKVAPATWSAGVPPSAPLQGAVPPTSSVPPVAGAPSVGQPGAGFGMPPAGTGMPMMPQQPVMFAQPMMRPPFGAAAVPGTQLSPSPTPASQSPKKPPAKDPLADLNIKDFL
# UniProt Q9Y5X2: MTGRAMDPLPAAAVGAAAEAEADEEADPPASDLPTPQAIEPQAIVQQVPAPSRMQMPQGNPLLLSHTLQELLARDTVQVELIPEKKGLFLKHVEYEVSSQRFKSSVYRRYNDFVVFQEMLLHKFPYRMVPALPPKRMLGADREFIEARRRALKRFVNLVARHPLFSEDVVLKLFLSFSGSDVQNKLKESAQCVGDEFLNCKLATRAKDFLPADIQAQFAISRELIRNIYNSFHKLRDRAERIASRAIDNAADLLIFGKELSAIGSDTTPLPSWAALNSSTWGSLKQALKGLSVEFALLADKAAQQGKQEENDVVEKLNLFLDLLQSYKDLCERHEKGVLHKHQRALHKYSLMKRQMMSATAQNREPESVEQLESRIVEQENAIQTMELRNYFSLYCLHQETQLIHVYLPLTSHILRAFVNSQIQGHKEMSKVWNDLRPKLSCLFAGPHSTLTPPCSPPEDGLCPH
# This is one part of the list.
# Legend:
# Experiment in all cases: log2 fold change, soluble protein after heating vs DMSO (PISA); higher = thermal stabilisation; K562 lysate, 10 uM; active = over 0.2 and 3.5 SD of the protein, either way, in both replicates (recomputed)
# [1] = compound: CS(=O)(=O)CCNCc1ccc(-c2ccc3ncnc(Nc4ccc(OCc5cccc(F)c5)c(Cl)c4)c3c2)o1 [lapatinib]
# How it was run: (§1)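 Thermal stability, expressed as log-two fold change relative to solvent controls, is given from duplicates. Crude K562 extract in PBS pH 7.4 with 1 mM MgCl2, at 1 mg/mL protein, was treated with 10 μM compound for 30 min and heated in aliquots for 3 min across 48°C-58°C. After pooling, adjustment to 0.5% NP-40 at 4°C and centrifugation at 21,000xg for 90 min, supernatant protein was measured by TMTpro 16plex LC-MS/MS with channel sums equalised.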
# [2] = compound: CS(=O)(=O)N1CCN(Cc2cc3nc(-c4cccc5[nH]ncc45)nc(N4CCOCC4)c3s2)CC1 [pictilisib]
# How it was run: as §1
# [3] = compound: C[C@@H](Oc1cc(-c2cnn(C3CCNCC3)c2)cnc1N)c1c(Cl)ccc(F)c1Cl [crizotinib]
# How it was run: as §1
# [4] = compound: C[C@H](C1=CC=C(C=C1)C(=O)NC2=C3C=CNC3=NC=C2)N
# How it was run: as §1
# [5] = compound: C[C@H](Nc1ncnc2nc[nH]c12)c1cc2cccc(Cl)c2c(=O)n1-c1ccccc1 [duvelisib]
# How it was run: as §1
# [6] = compound: Cc1cc(Nc2cc(CN3CCOCC3)c3nc(C)c(Cc4ccc(Cl)cc4F)n3n2)n[nH]1 [gandotinib]
# How it was run: as §1
# [7] = compound: Cc1cc(Nc2cc(N3CCN(C)CC3)nc(Sc3ccc(NC(=O)C4CC4)cc3)n2)n[nH]1 [tozasertib]
# How it was run: as §1
# [8] = compound: Cc1ccc(-n2nc(C(C)(C)C)cc2NC(=O)Nc2ccc(OCCN3CCOCC3)c3ccccc23)cc1 [doramapimod]
# How it was run: as §1
# [9] = compound: Cc1ccc(NC(=O)c2ccc(CN3CC[C@H](N(C)C)C3)c(C(F)(F)F)c2)cc1Nc1nccc(-c2cncnc2)n1 [bafetinib]
# How it was run: as §1
# [10] = compound: Cc1cccc(CC(=O)N2CCc3c2ccc(-c2cn(C)c4ncnc(N)c24)c3F)n1
# How it was run: as §1
# [11] = compound: Cc1cn(-c2cc(NC(=O)c3ccc(C)c(Nc4nccc(-c5cccnc5)n4)c3)cc(C(F)(F)F)c2)cn1 [nilotinib]
# How it was run: as §1
# [12] = compound: Cc1nc(Nc2n[nH]c3c2CN(C(=O)N[C@H](CN(C)C)c2ccccc2)C3(C)C)c2sccc2n1
# How it was run: as §1
# [13] = compound: Cc1nc(Nc2ncc(C(=O)Nc3c(C)cccc3Cl)s2)cc(N2CCN(CCO)CC2)n1 [dasatinib]
# How it was run: as §1
# [14] = compound: Cc1ncc(-c2ccnc(Nc3ccc(S(C)(=O)=O)cc3)n2)n1C(C)C
# How it was run: as §1
# [15] = compound: Cn1cc(-c2ccc3c(c2)CCN3C(=O)Cc2cccc(C(F)(F)F)c2)c2c(N)ncnc21
# How it was run: as §1
# [16] = compound: Cn1cc(CNCC2CCN(c3ncc(C(=O)NO)cn3)CC2)c2ccccc21 [quisinostat]
# How it was run: as §1
# [17] = compound: Cn1cncc1[C@@](N)(c1ccc(Cl)cc1)c1ccc2c(c1)c(-c1cccc(Cl)c1)cc(=O)n2C [tipifarnib]
# How it was run: as §1
# [18] = compound: NC(=O)Nc1cc(-c2cccc(F)c2)sc1C(=O)N[C@H]1CCCNC1
# How it was run: as §1
# [19] = compound: NC(=O)c1cnc(N[C@@H]2CCCC[C@@H]2N)nc1Nc1cccc(-n2nccn2)c1
# How it was run: as §1
# [20] = compound: NC1(c2ccc(-c3nc4ccn5c(=O)[nH]nc5c4cc3-c3ccccc3)cc2)CCC1
# How it was run: as §1
Target,log2 fold change [1],log2 fold change [2],log2 fold change [3],log2 fold change [4],log2 fold change [5],log2 fold change [6],log2 fold change [7],log2 fold change [8],log2 fold change [9],log2 fold change [10],log2 fold change [11],log2 fold change [12],log2 fold change [13],log2 fold change [14],log2 fold change [15],log2 fold change [16],log2 fold change [17],log2 fold change [18],log2 fold change [19],log2 fold change [20]
SPAG5 (UniProt Q96R06),inactive: 0.013,inactive: -0.004,inactive: -0.056,inactive: -0.016,inactive: 0.038,inactive: -0.11,inactive: 0.029,inactive: 0.036,inactive: -0.044,inactive: 0.058,inactive: 0.026,inactive: -0.013,inactive: -0.006,inactive: 0.001,inactive: 0.02,inactive: -0.051,inactive: -0.045,inactive: 0.001,inactive: 0.004,inactive: -0.008
SNTB2 (UniProt Q13425),inactive: -0.032,inactive: -0.004,inactive: 0.024,inactive: 0.02,inactive: 0.078,inactive: -0.004,inactive: 0.138,inactive: 0.021,inactive: -0.013,inactive: 0.032,inactive: 0.038,inactive: -0.004,inactive: -0.044,inactive: -0.023,inactive: 0.074,inactive: -0.222,inactive: -0.005,inactive: 0.188,inactive: -0.005,inactive: -0.081
SNX3 (UniProt O60493),inactive: 0.007,inactive: -0.01,inactive: 0.018,inactive: -0.023,inactive: 0.013,inactive: -0.02,inactive: 0.005,inactive: -0.005,inactive: -0.006,inactive: 0.003,inactive: -0.014,inactive: 0.007,inactive: -0.017,inactive: -0.012,inactive: 0.023,inactive: 0.033,inactive: 0.011,inactive: -0.001,inactive: 0.014,inactive: 0.071
SMARCC2 (UniProt Q8TAQ2),inactive: 0.002,inactive: 0,inactive: -0.011,inactive: -0.012,inactive: -0.002,inactive: -0.039,inactive: 0.003,inactive: -0.003,inactive: -0.048,inactive: 0.034,inactive: 0.002,inactive: -0.01,inactive: -0.037,inactive: -0.018,inactive: 0.025,inactive: -0.017,inactive: -0.011,inactive: 0.021,inactive: 0.014,inactive: 0.002
SMARCC1 (UniProt Q92922),inactive: 0.007,inactive: -0.022,inactive: -0.028,inactive: -0.033,inactive: -0.017,inactive: -0.016,inactive: -0.018,inactive: -0.025,inactive: -0.015,inactive: 0.029,inactive: 0.014,inactive: 0.01,inactive: -0.007,inactive: 0.027,inactive: 0.005,inactive: -0.004,inactive: -0.006,inactive: 0.025,inactive: 0,inactive: 0.012
SMN1 (UniProt Q16637),inactive: 0.086,inactive: 0.035,inactive: -0.183,inactive: -0.031,inactive: 0.021,inactive: -0.056,inactive: 0.049,inactive: 0.022,inactive: 0.036,inactive: 0.158,inactive: 0.012,inactive: 0.019,inactive: -0.005,inactive: -0.023,inactive: 0.05,inactive: -0.146,inactive: 0,inactive: -0.001,inactive: 0.047,inactive: 0
SOS1 (UniProt Q07889),inactive: -0.042,inactive: -0.04,inactive: -0.106,inactive: 0.032,inactive: 0.041,inactive: 0.016,inactive: -0.002,inactive: 0.031,inactive: -0.105,inactive: -0.01,inactive: -0.047,inactive: 0.021,inactive: -0.072,inactive: 0.052,inactive: 0.07,inactive: -0.042,inactive: -0.015,inactive: 0.065,inactive: 0.034,inactive: 0.035
SNRPA1 (UniProt P09661),inactive: 0.008,inactive: -0.007,inactive: 0.088,inactive: -0.045,inactive: 0.002,inactive: 0.049,inactive: 0.004,inactive: -0.015,inactive: 0.015,inactive: 0.002,inactive: 0.022,inactive: -0.028,inactive: 0.018,inactive: -0.024,inactive: -0.002,inactive: 0.107,inactive: 0.019,inactive: -0.011,inactive: 0,inactive: -0.009
SNX1 (UniProt Q13596),inactive: -0.013,inactive: 0.007,inactive: 0.027,inactive: -0.012,inactive: -0.003,inactive: -0.003,inactive: 0.007,inactive: -0.009,inactive: -0.025,inactive: 0.024,inactive: 0.004,inactive: -0.008,inactive: 0.001,inactive: 0.003,inactive: 0.026,inactive: 0.034,inactive: 0.007,inactive: 0.02,inactive: 0.005,inactive: 0.003
SNRPC (UniProt Q5TAL2),inactive: -0.046,inactive: -0.096,inactive: 0.024,inactive: -0.063,inactive: 0.012,inactive: 0.213,inactive: 0.121,inactive: -0.038,inactive: 0.113,inactive: 0.078,inactive: 0.122,inactive: 0.034,inactive: 0.048,inactive: 0.053,inactive: -0.018,inactive: 0.002,inactive: 0,inactive: -0.023,inactive: 0.017,inactive: 0.008
SOHLH2 isoform 3 (UniProt Q9NX45),inactive: 0.014,inactive: 0.042,inactive: 0.094,inactive: -0.026,inactive: 0.025,inactive: 0.001,inactive: 0.091,inactive: 0.048,inactive: -0.055,inactive: 0.005,inactive: -0.013,inactive: 0.027,inactive: 0.025,inactive: -0.071,inactive: -0.004,inactive: 0.031,inactive: 0.006,inactive: -0.047,inactive: -0.006,inactive: 0.023
"SNX6, A0A0A0MRI2",inactive: -0.008,inactive: 0.018,inactive: -0.062,inactive: 0.2,inactive: 0.003,inactive: -0.134,inactive: 0.022,inactive: -0.012,inactive: -0.04,inactive: -0.088,inactive: -0.021,inactive: 0.009,inactive: 0.003,inactive: 0.03,inactive: 0.027,inactive: -0.003,inactive: 0.007,inactive: -0.015,inactive: 0.016,inactive: 0.016
SMARCAL1 (UniProt Q9NZC9),inactive: -0.159,inactive: -0.271,inactive: -0.021,inactive: 0.07,inactive: 0.08,inactive: -0.175,inactive: 0.111,inactive: 0.048,inactive: -0.372,inactive: -0.224,inactive: -0.019,inactive: -0.013,inactive: -0.006,inactive: 0.007,inactive: -0.069,inactive: 0.03,inactive: -0.012,inactive: 0.048,inactive: 0.026,inactive: -0.115
SNAP91 (UniProt O60641),inactive: 0.064,inactive: -0.002,inactive: 0.011,inactive: -0.011,inactive: -0.001,inactive: 0.013,inactive: 0.013,inactive: 0.123,inactive: -0.023,inactive: 0.053,inactive: -0.036,inactive: 0.002,inactive: 0.011,inactive: -0.052,inactive: 0.056,inactive: 0.011,inactive: -0.081,inactive: -0.045,inactive: 0.114,inactive: 0.013
SMIM12 (UniProt Q96EX1),inactive: 0.014,inactive: 0.022,inactive: -0.024,active: 0.417,inactive: -0.061,inactive: -0.191,inactive: -0.009,inactive: 0.077,inactive: -0.083,inactive: -0.153,inactive: 0.014,inactive: 0.025,inactive: 0.09,inactive: 0.027,inactive: 0.061,inactive: -0.093,inactive: -0.023,inactive: 0.002,inactive: -0.016,inactive: -0.041
SNX8 (UniProt Q9Y5X2),inactive: 0.006,inactive: -0.004,inactive: -0.007,inactive: -0.029,inactive: 0.016,inactive: 0.031,inactive: 0.027,inactive: -0.015,inactive: -0.035,inactive: 0.034,inactive: 0.038,inactive: -0.016,inactive: 0.022,inactive: 0.012,inactive: 0.012,inactive: -0.071,inactive: 0.023,inactive: 0.039,inactive: 0.003,inactive: -0.012

# Laid out differently: entries from further up.
Target	log2 fold change [1]	log2 fold change [2]	log2 fold change [3]	log2 fold change [4]	log2 fold change [5]	log2 fold change [6]	log2 fold change [7]	log2 fold change [8]	log2 fold change [9]	log2 fold change [10]	log2 fold change [11]	log2 fold change [12]	log2 fold change [13]	log2 fold change [14]	log2 fold change [15]	log2 fold change [16]	log2 fold change [17]	log2 fold change [18]	log2 fold change [19]	log2 fold change [20]
SOHLH2 isoform 3 (UniProt Q9NX45)	inactive: 0.014	inactive: 0.042	inactive: 0.094	inactive: -0.026	inactive: 0.025	inactive: 0.001	inactive: 0.091	inactive: 0.048	inactive: -0.055	inactive: 0.005	inactive: -0.013	inactive: 0.027	inactive: 0.025	inactive: -0.071	inactive: -0.004	inactive: 0.031	inactive: 0.006	inactive: -0.047	inactive: -0.006	inactive: 0.023
SMIM12 (UniProt Q96EX1)	inactive: 0.014	inactive: 0.022	inactive: -0.024	active: 0.417	inactive: -0.061	inactive: -0.191	inactive: -0.009	inactive: 0.077	inactive: -0.083	inactive: -0.153	inactive: 0.014	inactive: 0.025	inactive: 0.09	inactive: 0.027	inactive: 0.061	inactive: -0.093	inactive: -0.023	inactive: 0.002	inactive: -0.016	inactive: -0.041
